Source: the supplement of paper PMC4604168 (melanoma cell lines)
Some of the results follow. Single values are uncertain, as repeats are few or missing.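 The apoptosis fraction was the count of cleaved-PARP antibody-stained nuclei relative to all DNA-stained nuclei, imaged in 1,536-well plates. Screening doses were set so most cells survived, and baseline and induced cleaved-PARP levels vary greatly across cell lines.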

These compounds were tested on SkMel2 (assay: cleaved PARP positive nuclei fraction relative to DMSO control; melanoma cells; higher = more apoptosis). Conditions: library dose: low library concentration; 72 h.

| SMILES | cleaved PARP positive nuclei fraction |
| --- | --- |
| CC(=O)O[C@@]12CO[C@@H]1C[C@H](O)[C@@]1(C)C(=O)[C@H](O)C3=C(C)[C@@H](OC(=O)[C@H](O)[C@@H](NC(=O)OC(C)(C)C)c4ccccc4)C[C@@](O)([C@@H](OC(=O)c4ccccc4)[C@H]21)C3(C)C [Docetaxel] + COc1cc(Nc2ncc(F)c(Nc3ccc4c(n3)NC(=O)C(C)(C)O4)n2)cc(OC)c1OC [Tamatinib] (first compound 0.0001 µM, partner dose 0.4 µM) | 332% |
| CS(=O)(=O)c1ccc(C(=O)Nc2ccc(Cl)c(-c3ccccn3)c2)c(Cl)c1 [vismodegib] + CC1(C)NC(=O)N(c2ccc([N+](=O)[O-])c(C(F)(F)F)c2)C1=O [nilutamide] (first compound 1 µM, partner dose 1 µM) | 120% |
| CCN(CC)CCNC(=O)c1c(C)[nH]c(/C=C2\C(=O)Nc3ccc(F)cc32)c1C [sunitinib] + COCC[n+]1c2c(n(Cc3cnccn3)c1C)C(=O)c1ccccc1C2=O [YM155] (first compound 0.4 µM, partner dose 0.0004 µM) | 55.2% |
| NC1(c2ccc(-c3nc4ccn5c(=O)[nH]nc5c4cc3-c3ccccc3)cc2)CCC1 + Nc1ncn([C@H]2C[C@H](O)[C@@H](CO)O2)c(=O)n1 [decitabine] (first compound 0.4 µM, partner dose 0.1 µM) | 171% |

These compounds were tested on SkMel30 in the same assay as above. Conditions: library dose: low library concentration; 72 h.

| SMILES | cleaved PARP positive nuclei fraction |
| --- | --- |
| NC1(c2ccc(-c3nc4ccn5c(=O)[nH]nc5c4cc3-c3ccccc3)cc2)CCC1 + Cc1nc(Nc2ncc(C(=O)Nc3c(C)cccc3Cl)s2)cc(N2CCN(CCO)CC2)n1 [dasatanib] (first compound 0.4 µM, partner dose 0.004 µM) | 341% |
| C[C@@H](N)c1ccc(C(=O)Nc2ccnc3[nH]ccc23)cc1 + CC(C)(C)c1cnc(CSc2cnc(NC(=O)C3CCNCC3)s2)o1 [SNS-032] (first compound 0.4 µM, partner dose 0.01 µM) | 69.3% |
| NC(=O)c1ccc(N(C(N)=O)c2c(F)cccc2F)nc1-c1ccc(F)cc1F + CN1CCN(c2ccc3nc(-c4c(N)c5c(F)cccc5[nH]c4=O)[nH]c3c2)CC1 [Dovitinib] (first compound 0.4 µM, partner dose 0.1 µM) | 191% |
| NC(=O)c1ccc(N(C(N)=O)c2c(F)cccc2F)nc1-c1ccc(F)cc1F + C[C@]1(O)C[C@@H](c2nc(-c3ccc4ccc(-c5ccccc5)nc4c3)c3c(N)nccn32)C1 [OSI906] (first compound 0.4 µM, partner dose 0.4 µM) | 33.4% |
| Cn1cnc2c(F)c(Nc3ccc(Br)cc3Cl)c(C(=O)NOCCO)cc21 [selumetinib] + Cn1nnc2c(C(N)=O)ncn2c1=O [temozolomide] (first compound 0.015 µM, partner dose 2 µM) | 264% |
| C[C@]1(O)C[C@@H](c2nc(-c3ccc4ccc(-c5ccccc5)nc4c3)c3c(N)nccn32)C1 + Clc1ccc(Nc2nnc(Cc3ccncc3)c3ccccc23)cc1 [vatalanib] (first compound 0.4 µM, partner dose 2 µM) | 21.2% |
| CC1(C)CCC(c2ccc(Cl)cc2)=C(CN2CCN(c3ccc(C(=O)NS(=O)(=O)c4ccc(N[C@H](CCN5CCOCC5)CSc5ccccc5)c(S(=O)(=O)C(F)(F)F)c4)cc3)CC2)C1 + Cc1cc(N2CCOCC2)cc2[nH]c(-c3c(NC[C@@H](O)c4cccc(Cl)c4)cc[nH]c3=O)nc12 [BMS536924] (first compound 0.4 µM, partner dose 0.2 µM) | 599% |
| CC(=O)O[C@@]12CO[C@@H]1C[C@H](O)[C@@]1(C)C(=O)[C@H](O)C3=C(C)[C@@H](OC(=O)[C@H](O)[C@@H](NC(=O)OC(C)(C)C)c4ccccc4)C[C@@](O)([C@@H](OC(=O)c4ccccc4)[C@H]21)C3(C)C [Docetaxel] + COCC[n+]1c2c(n(Cc3cnccn3)c1C)C(=O)c1ccccc1C2=O [YM155] (first compound 0.0001 µM, partner dose 0.0004 µM) | 430% |
| NC1(c2ccc(-c3nc4ccn5c(=O)[nH]nc5c4cc3-c3ccccc3)cc2)CCC1 + CC(=O)c1c(C)c2cnc(Nc3ccc(N4CCNCC4)cn3)nc2n(C2CCCC2)c1=O [palbociclib] (first compound 0.4 µM, partner dose 0.04 µM) | 138% |
